Results published in paper PMC12097062.
Results are given in words; binding and its absence hold for the method and conditions named. For some assays here: In cells and extracts the contact can be indirect. Some binding calls cover weakened binding; strength is not graded here.

What was measured:
[1] = target: LACK156-173 (156-173 peptide of the Leishmania homolog of receptors for activated C kinase), unlabelled (L. major); assay: cellular thermal shift assay (CETSA); MH7A lysate incubated with LACK156-173 (2 mg/mL) or DMSO at room temperature for 1 h, heated for 3 min at the given temperature, soluble fraction analysed by Western blot; only the target purified
[2] = target: Biotin-LACK156-173 (biotinylated 156-173 peptide of the Leishmania homolog of receptors for activated C kinase) (L. major); assay: co-IP; live MH7A cells incubated with 0.5 mM Biotin-LACK156-173 (or biotin) at 4 °C for 3 h and 30 min at room temperature, cross-linked with 1 mM BS3, lysed; 1 mg protein on streptavidin-coated magnetic beads at 4 °C for 4 h; Western blot; only the target purified

B1: Dolichyl-Diphosphooligosaccharide-Protein Glycosyltransferase Non-Catalytic Subunit (DDOST) (protein, UniProt P39656 43-456)
chain: SGPRTLVLLDNLNVRETHSLFFRSLKDRGFELTFKTADDPSLSLIKYGEFLYDNLIIFSPSVEDFGGNINVETISAFIDGGGSVLVAASSDIGDPLRELGSECGIEFDEEKTAVIDHHNYDISDLGQHTLIVADTENLLKAPTIVGKSSLNPILFRGVGMVADPDNPLVLDILTGSSTSYSFFPDKPITQYPHAVGKNTLLIAGLQARNNARVIFSGSLDFFSDSFFNSAVQKAAPGSQRYSQTGNYELAVALSRWVFKEEGVLRVGPVSHHRVGETAPPNAYTVTDLVEYSIVIQQLSNGKWVPFDGDDIQLEFVRIDPFVRTFLKKKGGKYSVQFKLPDVYGVFQFKVDYNRLGYTHLYSSTQVSVRPLQHTQYERFIPSAYPYYASAFSMMLGLFIFSIVFLHMKEKEKSD
- binding [1]: binds
- binding [2]: binds
